The values that follow come from article PMC7819943, “Rice protein-binding microarrays: a tool to detect cis-acting elements near promoter regions in rice”.

Chains of the proteins cited; added tags and fusions are not shown.
UniProt Q0JBA9, entry or part of it: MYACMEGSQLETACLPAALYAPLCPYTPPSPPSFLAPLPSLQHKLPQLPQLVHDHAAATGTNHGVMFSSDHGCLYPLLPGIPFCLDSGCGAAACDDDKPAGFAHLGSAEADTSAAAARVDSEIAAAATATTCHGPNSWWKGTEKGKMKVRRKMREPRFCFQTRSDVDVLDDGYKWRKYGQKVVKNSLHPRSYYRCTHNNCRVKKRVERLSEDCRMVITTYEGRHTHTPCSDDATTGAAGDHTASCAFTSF

Some of the results follow.

For this assay, the target named is OsWRKY34 (Oryza sativa, UniProt Q0JBA9 1-250). Briefly: protein-binding microarray (RPBM); PBS, 2% BSA, 51.3 ng/ul salmon testes DNA, 50 uM zinc acetate, 200 nM TF, 25 C, 1 h; high values mean tight binding. The settings on record: protein: recombinant; tags: N-terminal polyhistidine and DsRed monomer fusion (pET32a); label: CyDye5-dUTP incorporated in the synthesized complementary strand; 3' TTTTT single-stranded linker to array surface; dsDNA, one strand shown. The method, boiled down: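 Polyhistidine-tagged DsRed fusions of transcription factors, joined at the N-terminus, were expressed in E. coli BL21-CodonPlus and isolated on Ni–NTA. They were incubated at 200 nM for 1 h at 25 °C on a custom Agilent array, double-stranded and BSA-blocked, in PBS with 2% BSA, salmon testes DNA and 50 µM zinc acetate. The binding signal is per-feature fluorescence intensity (arbitrary units) read on an Axon 4000B scanner after washing.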
Turning to “GTGGTAGGGGTGGAGATAAAGTTGGACTCTGTAACCCGGCCGGAGTCACCTAGTGCAG”, the binding signal was 11300 fluorescence intensity (a.u.).

Turning to “CTTTCTATTCATGCCGCCATTGCTATATGTTGCTTATTTACGGAGTCACCTAGTGCAG”, the binding signal was 10100 fluorescence intensity (a.u.).

Regarding “ATGTCGGCGGCGGGCGGCGGCGGCGGCGTGGGGAAGGTGGCGGAGTCACCTAGTGCAG”, the binding signal is 9040 fluorescence intensity (a.u.).

Take “CGACCACCTCGCCGCGCTCGACCATCTCCGCCGGCAGCACCGGAGTCACCTAGTGCAG”: the binding signal is 10700 fluorescence intensity (a.u.).

For the sequence “GCCACTGATCCGTCCCAAAGCCTTCAAATTACTCAAATCCCGGAGTCACCTAGTGCAG”, the binding signal was 8760 fluorescence intensity (a.u.).

Turning to “TATTAATACTATCTCTTTGACTTTTTGGGTGCATAATATACGGAGTCACCTAGTGCAG”, the binding signal is 13000 fluorescence intensity (a.u.).

As for “ATCGTGACTTTCTTAGACTAGTAAGTAATGCTTTCCTGCCCGGAGTCACCTAGTGCAG”, the binding signal is 8970 fluorescence intensity (a.u.).

With “GTTGGCCTAATCCTACCAAATCTTTTGAAATTTCTACGTTCGGAGTCACCTAGTGCAG”, the binding signal is 8890 fluorescence intensity (a.u.).

As to “CCGGTGATGTTTTTATTTTTCTTCCGGTTCTTTTTCTCAACGGAGTCACCTAGTGCAG”, the binding signal was 12300 fluorescence intensity (a.u.).

In the case of “GGTACGGGCTCCGCGCCGACGTGCGGAGCGTCAACCTGTCCGGAGTCACCTAGTGCAG”, the binding signal is 9260 fluorescence intensity (a.u.).

“GAATCCATCGACACGTTTCTTTCGTCAGAACAGTGTCCGTCGGAGTCACCTAGTGCAG”: the binding signal is 8430 fluorescence intensity (a.u.).

For “CCTCTCGATGGATATAAATACGCCTCTAGCTCTAACTTTTCGGAGTCACCTAGTGCAG”, the binding signal was 8350 fluorescence intensity (a.u.).

As for “GAGCTCCACCTCCTCGCGTGCCCACGCCATCCATGGCTTCCGGAGTCACCTAGTGCAG”, the binding signal was 8080 fluorescence intensity (a.u.).

“GGAGAGGAGCGGGCGGGTTGGTGTTGGGAAGGGAGGGATGCGGAGTCACCTAGTGCAG”: the binding signal is 18200 fluorescence intensity (a.u.).

For “AGTATCAAGCGATACAGGAGCTCCTCACTCCATCTCTCTACGGAGTCACCTAGTGCAG”, the binding signal is 8330 fluorescence intensity (a.u.).

For “TGTAGTTTGTTGCTTTCTGGATATTTACTACTCCCTCCATCGGAGTCACCTAGTGCAG”, the binding signal was 8220 fluorescence intensity (a.u.).

On to “CCTACCTACAATTTGCCCATGCTACTGTTACACTGTTCCCCGGAGTCACCTAGTGCAG”, for which the binding signal is 10400 fluorescence intensity (a.u.).

As to “GCCAGCTATAACCAATTCACCTTCGTCCCTTCTTAAATATCGGAGTCACCTAGTGCAG”, the binding signal is 8320 fluorescence intensity (a.u.).

On to “AACGAGGGAGAGGGGTTGGGAAAAGGGGCATCCTAGCTGCCGGAGTCACCTAGTGCAG”, for which the binding signal was 11900 fluorescence intensity (a.u.).

“GAGTGGCCGTCCGCCGCTCCGCGCCTCCGCTCTGCTACCTCGGAGTCACCTAGTGCAG”: the binding signal was 9880 fluorescence intensity (a.u.).

Turning to “TTCGGTTGTTCTCATTCACTCTCCACCAACCTTGCCACCACGGAGTCACCTAGTGCAG”, the binding signal was 9940 fluorescence intensity (a.u.).

On to “CTCGATCCGCCTTGCCCAAGCGGTCTCCGCCTTTGCCCTCCGGAGTCACCTAGTGCAG”, for which the binding signal is 8220 fluorescence intensity (a.u.).

Turning to “TATGGTGCTGAGTTCACCTTCAATTACTGTGCTGTTTACTCGGAGTCACCTAGTGCAG”, the binding signal was 8660 fluorescence intensity (a.u.).

Take “TGCTAGGTACAAGTGTTTTTCCACACTTCTTGTTCTTCTTCGGAGTCACCTAGTGCAG”: the binding signal is 9990 fluorescence intensity (a.u.).

For the sequence “GATCGCGCGACTCTTGAGAACCGTGACCTTTATATACTTTCGGAGTCACCTAGTGCAG”, the binding signal is 8150 fluorescence intensity (a.u.).

Consider “GGGCTTGCCCCTCTCCAGGGCCCTCTAGAACGTTCCACTCCGGAGTCACCTAGTGCAG”, for which the binding signal is 8260 fluorescence intensity (a.u.).

Regarding “TTGCCTTGCCAGTCAGTGCTCGAGTTCGTCTCGCTCTCCGCGGAGTCACCTAGTGCAG”, the binding signal was 8730 fluorescence intensity (a.u.).

In the case of “GAGCCCACCATACTATCCAGCCCGTCTCATCTCCGCCGCTCGGAGTCACCTAGTGCAG”, the binding signal is 11200 fluorescence intensity (a.u.).

On to “AGCAGCTTGTTTCAATTGGTTTATCGTTGGTTGGATGGTTCGGAGTCACCTAGTGCAG”, for which the binding signal is 9220 fluorescence intensity (a.u.).

Turning to “CACACGCCCTATCGGATCGAGGTTTCTGTATACTCCCTCTCGGAGTCACCTAGTGCAG”, the binding signal was 8780 fluorescence intensity (a.u.).

Regarding “CTTTACTGGTTTGCTGTTTGCCGGCCGGCCTGATCATCGACGGAGTCACCTAGTGCAG”, the binding signal is 8300 fluorescence intensity (a.u.).

As to “AAGTAAGATGCCACACACCATAGTCTGCTTCACTGTCAACCGGAGTCACCTAGTGCAG”, the binding signal is 9080 fluorescence intensity (a.u.).

Turning to “GTTTCCGTCGTTGTTTGCTCCGCCACGAGGGCGCGCTACACGGAGTCACCTAGTGCAG”, the binding signal was 9290 fluorescence intensity (a.u.).

On to “AAATCTAATACTTAATTAATCATACACTAATATACTGTTTCGGAGTCACCTAGTGCAG”, for which the binding signal is 9350 fluorescence intensity (a.u.).

For “CTCTTGCTGTTTCCTTTGCTCTGTTTCCTCTGCCTGCGCCCGGAGTCACCTAGTGCAG”, the binding signal is 8760 fluorescence intensity (a.u.).

On to “CTGCGCTTCCGCCGACCACATCAGCTGCAGCACCAGCACCCGGAGTCACCTAGTGCAG”, for which the binding signal is 8250 fluorescence intensity (a.u.).

In the case of “TAGCCTTTTGTAATTTTTCTTTTTTCCTATAAATATTTTTCGGAGTCACCTAGTGCAG”, the binding signal is 9670 fluorescence intensity (a.u.).

Regarding “TACACCTGACTGTCGACCCTCACCATCTAGACACTTCCATCGGAGTCACCTAGTGCAG”, the binding signal was 8730 fluorescence intensity (a.u.).

“AGTGTCTTGGCATATCCAGATTCTAGAGTGGTTCTCAAAACGGAGTCACCTAGTGCAG”: the binding signal was 8710 fluorescence intensity (a.u.).

As for “TGTATGGTTGGTTATTGTGTGCTTCTAAGTGTGAAAATAACGGAGTCACCTAGTGCAG”, the binding signal was 8420 fluorescence intensity (a.u.).

As to “CTTGCTCTAGGCCTCTTCTCCTTCGCTTGTCCGGCCAGAACGGAGTCACCTAGTGCAG”, the binding signal was 9390 fluorescence intensity (a.u.).

Take “ACATAACCCCGTCATCTCGGCGACCCTCTCTCGTGGTCGCCGGAGTCACCTAGTGCAG”: the binding signal was 8540 fluorescence intensity (a.u.).

Regarding “GAGTTCTCATCTTCTCGTATGTTCCACCCAGTCACTAAAACGGAGTCACCTAGTGCAG”, the binding signal is 8490 fluorescence intensity (a.u.).

As to “GTGAATTAATTGGGCCCACACCTTTTCATGCACCCCTTGCCGGAGTCACCTAGTGCAG”, the binding signal is 8480 fluorescence intensity (a.u.).

Consider “CATACTCATTATTCCCGTCCACATGGTTTCATCTCGCCAGCGGAGTCACCTAGTGCAG”, for which the binding signal was 10300 fluorescence intensity (a.u.).

As to “TTGTCATATCCCCTTCAACGGATTGCTGGCTGGAAACACACGGAGTCACCTAGTGCAG”, the binding signal is 8210 fluorescence intensity (a.u.).

Turning to “CGCCGTGCTCCTCTTCTCTTCGCTGCCGTCGCCGTGCCTTCGGAGTCACCTAGTGCAG”, the binding signal is 8690 fluorescence intensity (a.u.).

Turning to “CACTGCTTTGTTTGATTGTCAGTTGGTGTGCTTTCTTACCCGGAGTCACCTAGTGCAG”, the binding signal is 9420 fluorescence intensity (a.u.).

As to “CTGACATGCGTCGCCATTGACTTTCGCCGCCGCCGCCGCGCGGAGTCACCTAGTGCAG”, the binding signal is 9140 fluorescence intensity (a.u.).

Turning to “ATATATCCCTCGTACACCCTGCTCTGAATGATAGTGTTGACGGAGTCACCTAGTGCAG”, the binding signal was 10000 fluorescence intensity (a.u.).

Take “TTCCCCACCCTCACGCCGCCGCCCACCACGCCGTCGTCCTCGGAGTCACCTAGTGCAG”: the binding signal is 9820 fluorescence intensity (a.u.).

Consider “CTCCTTCCCTATGGTCTTCTTCTTCTTCTTCTTCTTCCTCCGGAGTCACCTAGTGCAG”, for which the binding signal is 8450 fluorescence intensity (a.u.).

On to “CAACCAACCCGATCCGATCCAGCCGCCGCCGCCGCCGCCACGGAGTCACCTAGTGCAG”, for which the binding signal was 8290 fluorescence intensity (a.u.).

For “CGTGTCGTGTCGTGTGTGTGCGTGCCAACCGCGCGCGCGTCGGAGTCACCTAGTGCAG”, the binding signal is 8590 fluorescence intensity (a.u.).
